Reference: PubChem BioAssay AID720505 (Drosophila RNAi Screening Center, 2013)

Aim: 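Genes needed for store-operated calcium entry in fly cells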 (primary screen)
Cell system: Drosophila S2R+ cells
Reagent: long dsRNA against Drosophila genes
Conditions: thapsigargin (2 µM) in calcium-free buffer to empty internal stores, then 2 mM calcium added back
Read-out: 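Fluo-4 signal in 384-well plates read on a FLIPR after thapsigargin (2 µM, calcium-free) store depletion and 2 mM calcium add-back; unnormalised mean endpoint per well; screen run twice, selected wells retested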
Direction: calcium signal: higher = more calcium entry after store depletion
Rule for the call: 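About 1500 genes called as lowering calcium entry, by varying amounts, judged against per-plate control wells with STIM1 as positive and Rho1 as negative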
Calls: active = called as lowering calcium entry; inactive = not called
The screen tested about 20,000 reagents; below is a random part of those that have a named target and a result. Over the whole deposit, about 2,100 (10%) got an active call. 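Raw plate signals without normalisation; calls rest on control-based scores that were not deposited; replicate 2 separates called from uncalled poorly.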 Entries without a mark were called inactive. Not given: the amount of reagent, the time to read-out.

Rpn3 [DRSC03318] | calcium signal, replicate 1 = 64.8 (active); calcium signal, replicate 2 = 92.3
eys [DRSC00113] | calcium signal, replicate 1 = 112; calcium signal, replicate 2 = 95.4
eys [DRSC00402] | calcium signal, replicate 1 = 151; calcium signal, replicate 2 = 118
eys [DRSC00403] | calcium signal, replicate 1 = 192; calcium signal, replicate 2 = 135
eys [DRSC00695] | calcium signal, replicate 1 = 63 (active); calcium signal, replicate 2 = 163
RN-tre [DRSC07521] | calcium signal, replicate 1 = 107; calcium signal, replicate 2 = 198
CG17019 [DRSC06642] | calcium signal, replicate 1 = 183; calcium signal, replicate 2 = 115
Naa40 [DRSC16265] | calcium signal, replicate 1 = 172; calcium signal, replicate 2 = 175
CG12020 [DRSC08226] | calcium signal, replicate 1 = 104; calcium signal, replicate 2 = 94
CG16853 [DRSC01877] | calcium signal, replicate 1 = 94.6; calcium signal, replicate 2 = 155
CG15528 [DRSC15065] | calcium signal, replicate 1 = 161; calcium signal, replicate 2 = 149
Acp32CD [DRSC01858] | calcium signal, replicate 1 = 185; calcium signal, replicate 2 = 173
CG12035 [DRSC08238] | calcium signal, replicate 1 = 162; calcium signal, replicate 2 = 132
Tep3 [DRSC03452] | calcium signal, replicate 1 = 68.3 (active); calcium signal, replicate 2 = 171

Next part, starting with the last 2 of the part before.
CG12035 [DRSC08238] | calcium signal, replicate 1 = 162; calcium signal, replicate 2 = 132
Tep3 [DRSC03452] | calcium signal, replicate 1 = 68.3 (active); calcium signal, replicate 2 = 171
GAA1 [DRSC18267] | calcium signal, replicate 1 = 144; calcium signal, replicate 2 = 87.4
CG2680 [DRSC18466] | calcium signal, replicate 1 = 148; calcium signal, replicate 2 = 183
stau [DRSC07698] | calcium signal, replicate 1 = 156; calcium signal, replicate 2 = 114
lncRNA:CR33218 [DRSC22944] | calcium signal, replicate 1 = 79.6; calcium signal, replicate 2 = 188
Pde6 [DRSC16401] | calcium signal, replicate 1 = 137; calcium signal, replicate 2 = 160
Pde6 [DRSC16402] | calcium signal, replicate 1 = 106; calcium signal, replicate 2 = 169
Pde6 [DRSC16403] | calcium signal, replicate 1 = 81.5; calcium signal, replicate 2 = 137
